According to PubChem BioAssay AID328 (DTP/NCI, 2004):
The list is a part of this screen's results and no random one: it is rich in T/C values a quarter to a half above the control, in often repeated tests (any T/C) and in doses without a T/C. Other doses and runs of a compound stand elsewhere. T/C gives the treated animals as a percentage of the vehicle group. Some doses have a count of surviving animals in place of a T/C: the source files T/C as zero there, which appears to mark a toxic dose or a test without result, not a measured value. Survivors were counted at the toxicity check, usually on the fifth day, unless a day is given; later deaths do not show. Schedule codes are those of the source, taken here to give the interval after Q, in days (D) or hours (H), and the number of doses after X. Where survival is the endpoint, the PubChem record calls one and a half times the control and up active, and a quarter to a half above the control has no call in these data; cut-offs in other NCI protocols can differ.

Test system: BDF1 mice, P388 leukemia ip, median survival T/C
Assay: NCI In Vivo Anticancer Drug Screen. Data for tumor model P388 Leukemia (intraperitoneal) in B6D2F1 (BDF1) mice
Conditions: T/C endpoint: median survival time, schedule: Q01DX009 (ip), higher T/C = longer survival
In short: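 T/C = treated-group survival ÷ vehicle-control survival; tumour transplanted into mice before dosing.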

C/C=C1\C[N+]2(C)CCC34c5ccccc5NC32C(O)CC1C4(CO)C(=O)OC (centres undefined)
T/C (dose: 16.0 mg/kg/injection, vehicle: saline with Tween-80): 127 % of control

O=[N+]([O-])c1ccc(Cl)c2nonc12
survivor count (dose: 30.0 mg/kg/injection, vehicle: saline with Tween-80): 3 of 7
survivor count (dose: 60.0 mg/kg/injection, vehicle: saline with Tween-80): 0 of 7

CC(C)(C)C1=C[P+](c2ccccc2)(c2ccccc2)C(C(C)(C)C)=C[P+]1(c1ccccc1)c1ccccc1
survivor count (dose: 50.0 mg/kg/injection, vehicle: saline): 3 of 6
